Measured values reported in article PMC9700814.
Results are given in words; binding and its absence hold for the method and conditions named. In cells and extracts the contact can be indirect. Some results given as binding are weak or reduced against the parent protein; the word gives no strength. Where a sequence is shown, tags or fusion partners need not be part of it.

Sequences of proteins named here, by UniProt entry; tags and fusion partners are left off.
UniProt Q9DC51: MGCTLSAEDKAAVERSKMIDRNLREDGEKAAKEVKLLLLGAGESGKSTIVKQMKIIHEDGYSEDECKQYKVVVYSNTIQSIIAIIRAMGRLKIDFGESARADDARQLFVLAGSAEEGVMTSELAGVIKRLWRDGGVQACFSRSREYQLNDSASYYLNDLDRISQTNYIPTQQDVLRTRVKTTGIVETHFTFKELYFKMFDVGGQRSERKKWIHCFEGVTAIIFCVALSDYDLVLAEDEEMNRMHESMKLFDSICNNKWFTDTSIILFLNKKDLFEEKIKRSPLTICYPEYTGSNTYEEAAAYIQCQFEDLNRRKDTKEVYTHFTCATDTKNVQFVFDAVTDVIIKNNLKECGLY

Molecular target: T1, flag-GPSM1 (G-protein-signaling modulator 1) (UniProt Q6IR34)
T1 sequence: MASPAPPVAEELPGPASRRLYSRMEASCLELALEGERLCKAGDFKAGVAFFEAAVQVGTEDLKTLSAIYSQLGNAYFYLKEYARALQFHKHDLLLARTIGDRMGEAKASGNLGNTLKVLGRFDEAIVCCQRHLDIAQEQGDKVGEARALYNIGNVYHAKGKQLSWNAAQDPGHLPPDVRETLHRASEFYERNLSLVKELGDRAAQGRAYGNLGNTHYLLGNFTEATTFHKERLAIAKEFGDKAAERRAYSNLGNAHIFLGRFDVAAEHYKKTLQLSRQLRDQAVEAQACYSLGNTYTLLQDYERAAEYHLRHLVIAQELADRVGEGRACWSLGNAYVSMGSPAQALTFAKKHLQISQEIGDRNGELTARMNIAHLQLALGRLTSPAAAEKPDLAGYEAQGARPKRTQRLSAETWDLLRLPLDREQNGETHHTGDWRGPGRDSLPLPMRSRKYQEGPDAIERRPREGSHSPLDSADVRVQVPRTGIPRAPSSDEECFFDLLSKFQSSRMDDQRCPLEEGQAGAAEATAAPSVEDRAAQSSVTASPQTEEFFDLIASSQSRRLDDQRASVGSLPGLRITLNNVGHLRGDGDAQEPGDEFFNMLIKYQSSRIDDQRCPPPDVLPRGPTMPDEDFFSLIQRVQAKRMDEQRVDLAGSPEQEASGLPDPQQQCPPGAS
Test: co-IP; IP of flag with agarose-conjugated anti-DYKDDDDK affinity beads from lysates (IP buffer) of BMDMs transfected with Ad-flag-GPSM1 or Ad-Con, 4 °C overnight, with or without LPS stimulation; immunoblot for Gαi3

binding: binds
Substance: Gαi3 (from UniProt Q9DC51 1-354)
